Laboratory results reported in article PMC7948455, “Novel drug discovery platform for spinocerebellar ataxia, using fluorescence technology targeting β-III-spectrin” (The Journal of Biological Chemistry, 2020).

experiment: Fluorescence interference check (donor-only lifetime and fluorescence spectrum); format: cell-based; conditions: 10 μM, Hit at 4SD threshold in at least 2 of the 4 screens, spectral readout

Question: For `Nc1ccc2c3c(cccc13)C(=O)NC2=O` [4-Amino-1,8-naphthalimide], which “Fluorescence interference of LOPAC Hit” value is on record?
Answer: Its value is “fluorescently interfering”.

Question: Which “Fluorescence interference of LOPAC Hit” value does the source give for `CC[n+]1c(/C=C/C=C2/N(C)c3ccccc3C2(C)C)sc2ccccc21.[I-]` [AC-93253 iodide] here?
Answer: The value was “fluorescently interfering”.

Question: With `O=C1NC(=O)/C(=C/c2ccc(-c3ccc(F)cc3O)o2)S1` [AS-252424] as the compound, how does the “Fluorescence interference of LOPAC Hit” value read?
Answer: The value was “fluorescently interfering”.

Question: Which “Fluorescence interference of LOPAC Hit” value does the source give for `O=C1Nc2ccc(I)cc2/C1=C/c1cc(Br)c(O)c(Br)c1` [GW5074] here?
Answer: The value was “fluorescently interfering”.

Question: Which “Fluorescence interference of LOPAC Hit” value does the source give for `O=C1C(SCCO)=C(SCCO)C(=O)c2ccccc21` [NSC 95397] here?
Answer: Its value is “fluorescently interfering”.

Question: For `Oc1c2ccccc2c2c3c(cccc13)N=N2` [SP600125], which “Fluorescence interference of LOPAC Hit” value is on record?
Answer: Its value is “fluorescently interfering”.

Question: Which “Fluorescence interference of LOPAC Hit” value does the source give for `Cc1cc(C)c(/C=C2\C(=O)Nc3ccccc32)[nH]1` [SU 5416] here?
Answer: The value was “fluorescently interfering”.

Question: For `O=C(/C=C/c1ccc(O)cc1)CC(=O)/C=C/c1ccc(O)cc1` [bisdemethoxycurcumin], which “Fluorescence interference of LOPAC Hit” value is on record?
Answer: Its value is “fluorescently interfering”.

Question: Which “Fluorescence interference of LOPAC Hit” value does the source give for `OCCN(CCO)c1nc(N2CCCCC2)c2nc(N(CCO)CCO)nc(N3CCCCC3)c2n1` [dipyridamole] here?
Answer: Its value is “fluorescently interfering”.

Question: Which “Fluorescence interference of LOPAC Hit” value does the source give for `Cc1c2ccncc2c(C)c2c1[nH]c1ccccc12` [ellipticine] here?
Answer: The value was “fluorescently interfering”.

Question: Which “Fluorescence interference of LOPAC Hit” value does the source give for `Cc1cc(O)c2c(c1)C(=O)c1cc(O)cc(O)c1C2=O` [emodin] here?
Answer: The value was “fluorescently interfering”.

Question: Which “Fluorescence interference of LOPAC Hit” value does the source give for `CC(=O)[C@]1(O)Cc2c(O)c3c(c(O)c2[C@@H](O[C@H]2C[C@H](N)[C@H](O)[C@H](C)O2)C1)C(=O)c1ccccc1C3=O` [idarubicin] here?
Answer: The value was “fluorescently interfering”.

Question: For `CCN(CC)CCCC(C)Nc1c2ccc(Cl)cc2nc2ccc(OC)cc12` (stereo not drawn) [quinacrine dihydrochloride], which “Fluorescence interference of LOPAC Hit” value is on record?
Answer: Its value is “fluorescently interfering”.

Question: Which “Fluorescence interference of LOPAC Hit” value does the source give for `C[n+]1cc2c3c(ccc2c2ccc4cc5c(cc4c21)OCO5)OCO3` [sanguinarine chloride] here?
Answer: Its value is “fluorescently interfering”.

Question: With `C[C@H](O)C(=O)C1=Nc2c(nc(N)[nH]c2=O)NC1` [sepiapterin] as the compound, how does the “Fluorescence interference of LOPAC Hit” value read?
Answer: Its value is “fluorescently interfering”.

Question: With `CCN(CC)CCNC(=O)c1c(C)[nH]c(/C=C2\C(=O)Nc3ccc(F)cc32)c1C` [sunitinib malate] as the compound, how does the “Fluorescence interference of LOPAC Hit” value read?
Answer: The value was “fluorescently interfering”.

Question: With `Nc1n[n+]([O-])c2ccccc2[n+]1[O-]` [tirapazamine] as the compound, how does the “Fluorescence interference of LOPAC Hit” value read?
Answer: Its value is “fluorescently interfering”.

Question: With `CC[C@@]1(O)C(=O)OCc2c1cc1n(c2=O)Cc2cc3c(CN(C)C)c(O)ccc3nc2-1` [topotecan hydrochloride hydrate] as the compound, how does the “Fluorescence interference of LOPAC Hit” value read?
Answer: The value was “fluorescently interfering”.

Question: Which “Fluorescence interference of LOPAC Hit” value does the source give for `N#C/C(=C\c1ccc(O)c(O)c1)C(N)=S` [tyrphostin 47] here?
Answer: Its value is “fluorescently interfering”.

Question: For `N#CC(C#N)=C(N)/C(C#N)=C/c1cc(O)c(O)c(O)c1` [tyrphostin 51], which “Fluorescence interference of LOPAC Hit” value is on record?
Answer: Its value is “fluorescently interfering”.

Question: For `CC(C)(C)c1cc(/C=C(\C#N)C(N)=S)cc(C(C)(C)C)c1O` [tyrphostin AG 879], which “Fluorescence interference of LOPAC Hit” value is on record?
Answer: Its value is “fluorescently interfering”.

Where a name gives a salt, the structure may show the parent alone. Some entries repeat one wording, which the source may state once for all of them.
